Reference: PubChem BioAssay AID504444 (National Center for Advancing Translational Sciences (NCATS), 2011)
Among all 360,000 compounds or so, about 7,500 (2.1%) were called active. The inconclusive results got no clear call from the source; some entries with a clear call stand among them for comparison. Calls follow the shape of the dose curve; as a rule, active = well fitted inhibition curve with a large enough effect; inconclusive = small, poorly fitted or top-dose-only effect, or effect the other way; inactive = flat fitted curve, though single readings scatter. A potency beside an inconclusive call is a rough fit, not a confirmed value.

assay: Nrf2 qHTS screen for inhibitors; conditions: A549 ARE-Fluc reporter, luciferase luminescence, 18-24 h; series mostly up to 46 µM; also: nearly all actives have a fitted effect of over 60% in size
In short: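 Nrf2 function is reported as luminescence of an ARE-controlled luciferase in A549 cells. Compounds were tested at several concentrations, and a CellTiter-Fluor read on the same wells flagged cytotoxicity.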
Potency is read from the fitted curve at half-maximal effect.

Structure (SMILES)	Potency
O=C1C2=C(Nc3ccccc3SC2c2ccccc2C(F)(F)F)c2ccccc21 (configuration not stated)	inconclusive: 29.1 µM [falling, single point]
Clc1ccccc1CN1CCN(/N=C/C=C\c2ccco2)CC1	inconclusive: 20.6 µM [activator, single point]
Cc1nnc(SCc2ccc(Cl)c(Cl)c2)s1	inactive
COc1ccccc1C(=O)C1CCCN(C(=O)CN2CCCCC2=O)C1 (configuration not stated)	inconclusive: 18.4 µM [activator, single point]
COc1cc(S(=O)(=O)Nc2cccc(C)c2)ccc1NC(=O)c1cccnc1	inconclusive: 25.9 µM [falling, single point]
c1ccc(-n2c(-c3ccco3)nnc2-c2ccco2)cc1	inactive
CCn1c(C)nc2cc(C(=O)NNS(=O)(=O)c3ccccc3F)ccc21	inactive
Cc1nn(C)c(C)c1S(=O)(=O)N(CC(=O)N1CCN(c2ccccc2)CC1)c1ccc(C(C)C)cc1	inactive
COc1ccc(Cn2c(=O)sc3ccccc32)cc1OC	active: 25.9 µM
O=C(N/N=C/c1ccc([N+](=O)[O-])o1)c1cc(-c2ccc(-c3ccccc3)cc2)nc2ccccc12	inconclusive: 6.51 µM [activator, partial curve]
Cc1ccc(C)c(CN2C(=O)c3ccccc3S(=O)c3ccc(C(=O)N4CCN(c5ccccn5)CC4)cc32)c1 (configuration not stated)	inconclusive: 18.4 µM [activator, single point]
O=C(CN1C(=O)C(=O)N(C2CCCC2)C1=O)Nc1ccc(Cl)cc1C(F)(F)F	inactive
O=C(COc1ccc(Cl)cc1)Nc1ccc(C(=O)NCc2cccnc2)cc1	active: 20.6 µM
CCOc1ccccc1NC(=O)C1CCN(S(=O)(=O)c2ccc3[nH]c4c(c3c2)CCCCC4)CC1	inactive
CC(C)OC(=O)c1cc2c(=O)[nH]c(C(Cl)(Cl)Cl)nc2o1	inconclusive: 11.6 µM [falling, partial curve]
CCC(=O)Nc1cccc(-c2cc3ccccc3oc2=O)c1	inconclusive: 14.6 µM [activator, partial curve]
COC(=O)C(NC(C)=O)(Nc1ccc(Br)cn1)C(F)(F)F (configuration not stated)	inactive
Cc1c(/C=N/NC(=O)CNc2ccccc2)c2ccccn2c1C(=O)c1ccccc1	inconclusive: 16.4 µM [falling, partial curve, poor fit]
O=C(NNC(=O)c1ccncc1)Nc1ccc(N=Nc2ccccc2)cc1	inactive
CCc1ccc(NC(=O)c2ccccc2Br)cc1	inconclusive: 6.51 µM [activator, partial curve]
COc1ccc(-c2nnc3c4ccccc4c(-c4ccccc4)nn23)cc1	inactive
CCOc1ccc(CCNC(=O)c2cccc(-n3c(C)nc4cccnc43)c2)cc1	inconclusive: 23.1 µM [falling, single point]
Cc1ccc(-c2nn(-c3ccccc3)cc2C2CC(c3cccs3)=NN2C(=O)CCCC(=O)O)cc1 (configuration not stated)	inconclusive: 7.31 µM [falling, partial curve, poor fit]
COc1ccc(CCNc2ncnc3c2c(C)c(C)n3CCO)cc1OC	inconclusive: 23.1 µM [falling, partial curve, poor fit]

Structure (SMILES)	Potency
Nc1nnnn1/N=C/c1ccc(O)cc1	inactive
FC(F)(F)c1nc(-c2ccncc2)ncc1-c1nnnn1-c1ccccc1	inactive
O=C(Nc1ccccc1F)c1ccc(-c2ccccc2)s1	inconclusive: 2.31 µM [activator, full curve]
Cc1cc(C)c(NC(=O)CCCN2CCCC2)c(C)c1	inconclusive: 20.6 µM [activator, single point]
O=S(=O)(Cc1ccccc1)C1CCCCC1O (configuration not stated)	inactive
CCOC(=O)c1nnn(CC(=O)NC(=O)Nc2cccc(CC)c2)c1C(=O)OCC	inactive
CC(=O)n1cc([C@@H]2C=C(C(=O)N3CCN(C)CC3)O[C@H](OCc3ccc(CO)cc3)C2)c2ccccc21	inactive
Fc1ccc(Cc2cn3cc(-c4ccc(Cl)cc4)nc3s2)cc1	inconclusive: 1.03 µM [activator, partial curve, poor fit]
CC1Cc2cc(S(=O)(=O)N(C)c3ccc(Br)cc3)ccc2N1C(=O)C1CC1 (configuration not stated)	inconclusive: 29.1 µM [falling, single point]
O=C(NCCN1CCOCC1)c1ccc2c(c1)N(Cc1ccc(Cl)cc1)CCS2	inconclusive: 32.6 µM [falling, partial curve, poor fit]
NC(=O)c1ncn([C@@H]2O[C@H](CNCc3cccc(OC4CCCC4)c3)[C@@H](O)[C@H]2O)n1	inactive
CCOCCCNC(=O)C(c1ccc(C)cc1)N(Cc1cccs1)C(=O)c1ccccc1O (configuration not stated)	inconclusive: 29.1 µM [falling, single point]
COc1cccc(NC(=O)N2CCN(c3nc(-c4cccc(OC)c4)cs3)CC2)c1	inconclusive: 20.6 µM [falling, single point]
CC(=O)N1N=C(c2ccc(Cl)cc2)CC1c1ccc([N+](=O)[O-])cc1 (configuration not stated)	inconclusive: 25.9 µM [falling, single point]
Cc1cc2c(s1)c1cnn(Cc3ccc(C(C)(C)C)cc3)c(=O)c1n2C	inactive
O=C1C[C@@H](c2ccccc2Cl)N1S(=O)(=O)c1ccccc1[N+](=O)[O-]	inactive
CCOC(=O)CCCNC(=O)CN1CCC(c2nc3ccccc3s2)CC1	inconclusive: 29.1 µM [falling, single point]
COc1cccc(N2CCN(c3nc(-c4ccccc4C)cc(=O)[nH]3)CC2)c1	inconclusive: 5.8 µM [activator, single point]
Cc1nnsc1C(=O)Nc1ccc(S(=O)(=O)N2CCCCC2)cc1	inconclusive: 13 µM [falling, partial curve, poor fit]
COCCCNc1nc(N)c([N+](=O)[O-])c(N2CCCCCC2)n1	inconclusive: 20.6 µM [falling, partial curve]
CCc1c(C)nc2ncnn2c1N1CCC(C(=O)Nc2ccc(C)cc2)CC1	active: 13 µM
Cn1c2ccccc2c(=O)c2c(=O)n(-c3ccccc3)c(C3CCCCC3)nc21	inactive
COC(=O)c1cc(S(=O)(=O)NCC2CCN(Cc3ccccc3F)CC2)c[nH]1	inactive
O=C1CC(c2ccc(F)cc2)Cc2nc(N3CCN(c4ccccc4)CC3)ncc21 (configuration not stated)	inactive

2 of the compounds above, comma-delimited.
Structure (SMILES),Potency
O=S(=O)(Cc1ccccc1)C1CCCCC1O (configuration not stated),inactive
CCOC(=O)c1nnn(CC(=O)NC(=O)Nc2cccc(CC)c2)c1C(=O)OCC,inactive

(more compounds)

Structure (SMILES)	Potency
COC(=O)CCC(=O)OC1(C)C(=O)C2=CN(c3ccc(OC)cc3)C(c3ccc(OC)cc3)=CC2=C(Br)C1=O (configuration not stated)	inactive
CCOc1ccc(-c2cn3c(n2)sc2cc(C(=O)NCCc4ccc(OC)c(OC)c4)ccc23)cc1	inconclusive: 2.06 µM [activator, full curve, poor fit]
Cc1nc2ccc(NC(=O)c3ccc(C)c(S(=O)(=O)N4CCOCC4)c3)cc2s1	inconclusive: 23.1 µM [falling, partial curve, poor fit]
O=C(Nc1ccc(Cl)cc1Cl)NC1CCN(S(=O)(=O)c2ccc(F)cc2)CC1	inconclusive: 23.1 µM [falling, partial curve, poor fit]
Cc1ccc2cc(C)c(Sc3nnnn3-c3ccccc3)nc2c1	inactive
O=C(CCn1nc(-c2ccc(Cl)cc2)c2ccccc2c1=O)Nc1ccc(OC(F)(F)F)cc1	inactive
COc1ccccc1OCC(=O)/C=C1/N(C)c2ccccc2C1(C)C	inconclusive: 16.4 µM [falling, single point]
COC(=O)[C@H](CC(C)C)N(Cc1ccccc1)S(=O)(=O)N(Cc1ccccc1)[C@@H](CC(C)C)C(=O)OC	inactive
Cc1nc2ccc(NC(=O)Cc3cccc(F)c3)cc2s1	inactive
COc1cccc(CNc2nc(C(F)(F)F)nc3ccccc23)c1	active: 23.1 µM
COc1ccc(OC)c(CNC(=O)C2CCN(c3ncnc4c3nc3n4CCCCC3)CC2)c1	inconclusive: 29.1 µM [activator, single point]
CN(C)S(=O)(=O)c1ccc(N2CCN(S(=O)(=O)c3ccc(F)cc3)CC2)c(Cl)c1	active: 5.8 µM
COc1ccc2[nH]c(C)c(CN3CCC(C)CC3)c(=O)c2c1	inactive
S=C1NCCc2ccc(Cl)cc2C1c1ccccc1Cl (configuration not stated)	inconclusive: 32.6 µM [falling, single point]
N/C(Cc1ccc([N+](=O)[O-])cc1)=N\OC(=O)c1cccc(Br)c1	inconclusive: 0.731 µM [falling, full curve, poor fit]
CC(C)(C)n1nc2c(c1NC(=O)c1cc(Cl)ccc1[N+](=O)[O-])CS(=O)(=O)C2	inconclusive: 29.1 µM [falling, single point]
CCCn1c(SCC(=O)Nc2cccc(S(=O)(=O)NC3=NCCCCC3)c2)nc2ccccc2c1=O	inconclusive: 16.4 µM [falling, single point]
Cc1ccc(NC(=O)CN2C(=O)c3ccccc3C2=O)cc1	inactive
Oc1ccccc1C1=NN(c2ccccc2)C(c2ccccc2)C1 (configuration not stated)	inconclusive: 29.1 µM [falling, single point]
Cc1ccc(NC(=O)CCC(=O)c2cccs2)c(Br)c1	inactive
Cc1cccc(-c2nc(CS(=O)CC(=O)NC3CCCC(C)C3C)c(C)o2)c1 (configuration not stated)	inconclusive: 32.6 µM [falling, single point]
CCOC(=O)N1CCN(C(=O)CSc2ncnc3ccccc23)CC1	inconclusive: 3.26 µM [falling, partial curve]
CN(C(=O)c1cc2c(=O)n3ccccc3nc2n1C)c1ccccc1	inactive
CC(C)(COC(=O)c1ccccc1)N1CC2CCC(C1)O2	inconclusive: 18.4 µM [activator, partial curve]

In a second layout: three of the compounds above

| Structure (SMILES) | Potency |
| --- | --- |
| Cc1ccc2cc(C)c(Sc3nnnn3-c3ccccc3)nc2c1 | inactive |
| Cc1ccc(NC(=O)CN2C(=O)c3ccccc3C2=O)cc1 | inactive |
| Cc1ccc(NC(=O)CCC(=O)c2cccs2)c(Br)c1 | inactive |

Some of these compounds in order of count of non-hydrogen atoms, low to high.
Structure (SMILES)	Potency
S=C1NCCc2ccc(Cl)cc2C1c1ccccc1Cl (configuration not stated)	inconclusive: 32.6 µM [falling, single point]
Cc1ccc(NC(=O)CN2C(=O)c3ccccc3C2=O)cc1	inactive
CCOc1ccc(-c2cn3c(n2)sc2cc(C(=O)NCCc4ccc(OC)c(OC)c4)ccc23)cc1	inconclusive: 2.06 µM [activator, full curve, poor fit]
